{"sequences": {"note": "By UniProt entry, the sequences of proteins in these tests, tags left out.", "UniProt Q61188, whole entry": "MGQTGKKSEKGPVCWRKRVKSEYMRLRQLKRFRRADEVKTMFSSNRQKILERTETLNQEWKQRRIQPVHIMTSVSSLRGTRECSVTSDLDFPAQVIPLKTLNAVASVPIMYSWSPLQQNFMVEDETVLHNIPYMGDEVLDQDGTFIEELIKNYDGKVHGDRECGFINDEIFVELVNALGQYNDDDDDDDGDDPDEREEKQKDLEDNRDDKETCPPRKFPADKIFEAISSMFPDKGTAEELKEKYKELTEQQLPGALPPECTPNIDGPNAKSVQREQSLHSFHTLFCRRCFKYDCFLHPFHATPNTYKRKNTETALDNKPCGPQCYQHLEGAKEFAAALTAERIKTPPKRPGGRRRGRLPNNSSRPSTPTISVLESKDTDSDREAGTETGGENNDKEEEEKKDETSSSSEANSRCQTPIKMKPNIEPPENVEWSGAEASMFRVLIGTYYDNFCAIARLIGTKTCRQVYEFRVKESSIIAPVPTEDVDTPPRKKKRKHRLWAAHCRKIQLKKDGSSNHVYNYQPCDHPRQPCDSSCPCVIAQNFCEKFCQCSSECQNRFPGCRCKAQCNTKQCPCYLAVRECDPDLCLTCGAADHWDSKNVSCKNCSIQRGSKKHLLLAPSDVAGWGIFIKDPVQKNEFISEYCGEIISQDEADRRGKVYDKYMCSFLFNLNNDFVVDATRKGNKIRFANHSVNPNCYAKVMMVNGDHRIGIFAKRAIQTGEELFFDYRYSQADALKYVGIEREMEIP"}, "source": "ChEMBL document CHEMBL5674883", "about": "“The Heterochromatin Landscape in Migrating Cells and the Importance of H3K27me3 for Associated Transcriptome Alterations” (Cells, 2018)", "format_in_all_cases": "cell-based", "key": {"[1]": {"molecular_target": "T1, RNA polymerase II (Mus musculus) (UniProt P08775+Q8CFI7+P97760+A0A3Q4L2S8+Q80UW8+P61219+P62488+Q923G2+P60898+O08740+Q63871+P62876)", "test": "Inhibition of RNA polymerase II in mouse B16-F1 migrating cells assessed as fold change in Klf10-RNA stability at 0.1 mM measured by ChIP-seq analysis relative to control cells"}, "[2]": {"molecular_target": "T1, RNA polymerase II (Mus musculus)", "test": "Inhibition of RNA polymerase II in mouse B16-F1 migrating cells assessed as fold change in D330045A20Rik-RNA stability at 0.1 mM measured by ChIP-seq analysis relative to control cells"}, "[3]": {"molecular_target": "T1, RNA polymerase II (Mus musculus)", "test": "Inhibition of RNA polymerase II in mouse B16-F1 migrating cells assessed as fold change in Slc25a39-RNA stability at 0.1 mM measured by ChIP-seq analysis relative to control cells"}, "[4]": {"molecular_target": "T1, RNA polymerase II (Mus musculus)", "test": "Inhibition of RNA polymerase II in mouse B16-F1 migrating cells assessed as fold change in Krr1-RNA stability at 0.1 mM measured by ChIP-seq analysis relative to control cells"}, "[5]": {"molecular_target": "T1, RNA polymerase II (Mus musculus)", "test": "Inhibition of RNA polymerase II in mouse B16-F1 migrating cells assessed as fold change in Pggt1b-RNA stability at 0.1 mM measured by ChIP-seq analysis relative to control cells"}, "[6]": {"molecular_target": "T1, RNA polymerase II (Mus musculus)", "test": "Inhibition of RNA polymerase II in mouse B16-F1 migrating cells assessed as fold change in Pgm2-RNA stability at 0.1 mM measured by ChIP-seq analysis relative to control cells"}, "[7]": {"molecular_target": "T1, RNA polymerase II (Mus musculus)", "test": "Inhibition of RNA polymerase II in mouse B16-F1 migrating cells assessed as fold change in Arhgap18-RNA stability at 0.1 mM measured by ChIP-seq analysis relative to control cells"}, "[8]": {"molecular_target": "T1, RNA polymerase II (Mus musculus)", "test": "Inhibition of RNA polymerase II in mouse B16-F1 migrating cells assessed as fold change in Npat-RNA stability at 0.1 mM measured by ChIP-seq analysis relative to control cells"}, "[9]": {"molecular_target": "T1, RNA polymerase II (Mus musculus)", "test": "Inhibition of RNA polymerase II in mouse B16-F1 migrating cells assessed as fold change in Phospho1-RNA stability at 0.1 mM measured by ChIP-seq analysis relative to control cells"}, "[10]": {"molecular_target": "T1, RNA polymerase II (Mus musculus)", "test": "Inhibition of RNA polymerase II in mouse B16-F1 migrating cells assessed as fold change in Thoc2-RNA stability at 0.1 mM measured by ChIP-seq analysis relative to control cells"}, "[11]": {"molecular_target": "T1, RNA polymerase II (Mus musculus)", "test": "Inhibition of RNA polymerase II in mouse B16-F1 migrating cells assessed as fold change in Prelid1-RNA stability at 0.1 mM measured by ChIP-seq analysis relative to control cells"}, "[12]": {"molecular_target": "T1, RNA polymerase II (Mus musculus)", "test": "Inhibition of RNA polymerase II in mouse B16-F1 migrating cells assessed as fold change in Mrpl2-RNA stability at 0.1 mM measured by ChIP-seq analysis relative to control cells"}, "[13]": {"molecular_target": "T1, RNA polymerase II (Mus musculus)", "test": "Inhibition of RNA polymerase II in mouse B16-F1 migrating cells assessed as fold change in Exoc5-RNA stability at 0.1 mM measured by ChIP-seq analysis relative to control cells"}, "[14]": {"molecular_target": "T1, RNA polymerase II (Mus musculus)", "test": "Inhibition of RNA polymerase II in mouse B16-F1 migrating cells assessed as fold change in Pnkp-RNA stability at 0.1 mM measured by ChIP-seq analysis relative to control cells"}, "[15]": {"molecular_target": "T1, RNA polymerase II (Mus musculus)", "test": "Inhibition of RNA polymerase II in mouse B16-F1 migrating cells assessed as fold change in Plpp5-RNA stability at 0.1 mM measured by ChIP-seq analysis relative to control cells"}, "[16]": {"molecular_target": "Histone-lysine N-methyltransferase EZH2 (Mus musculus) (UniProt Q61188)", "test": "Inhibition of EZH2 in mouse B16-F1 migrating cells assessed as fold change in H3K27me3-independent regulated Pmepa1-mRNA expression at 3 uM measured by ChIP-seq analysis relative to control cells"}, "[17]": {"molecular_target": "Histone-lysine N-methyltransferase EZH2 (Mus musculus) (UniProt Q61188)", "test": "Inhibition of EZH2 in mouse B16-F1 migrating cells assessed as fold change in H3K27me3-independent regulated Mgarp-mRNA expression at 3 uM measured by ChIP-seq analysis relative to control cells"}, "[18]": {"molecular_target": "Histone-lysine N-methyltransferase EZH2 (Mus musculus) (UniProt Q61188)", "test": "Inhibition of EZH2 in mouse B16-F1 migrating cells assessed as fold change in H3K27me3-dependent regulated Ttbk1-mRNA expression at 3 uM measured by ChIP-seq analysis relative to control cells"}, "[19]": {"molecular_target": "Histone-lysine N-methyltransferase EZH2 (Mus musculus) (UniProt Q61188)", "test": "Inhibition of EZH2 in mouse B16-F1 migrating cells assessed as fold change in H3K27me3-independent regulated Ankzf1-mRNA expression at 3 uM measured by ChIP-seq analysis relative to control cells"}, "[20]": {"molecular_target": "Histone-lysine N-methyltransferase EZH2 (Mus musculus) (UniProt Q61188)", "test": "Inhibition of EZH2 in mouse B16-F1 migrating cells assessed as fold change in H3K27me3-buffered regulated Col15a1-mRNA expression at 3 uM measured by ChIP-seq analysis relative to control cells"}, "[21]": {"molecular_target": "Histone-lysine N-methyltransferase EZH2 (Mus musculus) (UniProt Q61188)", "test": "Inhibition of EZH2 in mouse B16-F1 migrating cells assessed as fold change in H3K27me3-buffered regulated Plxnb1-mRNA expression at 3 uM measured by ChIP-seq analysis relative to control cells"}, "[22]": {"molecular_target": "Histone-lysine N-methyltransferase EZH2 (Mus musculus) (UniProt Q61188)", "test": "Inhibition of EZH2 in mouse B16-F1 migrating cells assessed as fold change in H3K27me3-independent regulated Esco2-mRNA expression at 3 uM measured by ChIP-seq analysis relative to control cells"}, "[23]": {"molecular_target": "Histone-lysine N-methyltransferase EZH2 (Mus musculus) (UniProt Q61188)", "test": "Inhibition of EZH2 in mouse B16-F1 migrating cells assessed as fold change in H3K27me3-dependent regulated Tet1-mRNA expression at 3 uM measured by ChIP-seq analysis relative to control cells"}, "[24]": {"molecular_target": "Histone-lysine N-methyltransferase EZH2 (Mus musculus) (UniProt Q61188)", "test": "Inhibition of EZH2 in mouse B16-F1 migrating cells assessed as fold change in H3K27me3-buffered regulated Ing2-mRNA expression at 3 uM measured by ChIP-seq analysis relative to control cells"}, "[25]": {"molecular_target": "Histone-lysine N-methyltransferase EZH2 (Mus musculus) (UniProt Q61188)", "test": "Inhibition of EZH2 in mouse B16-F1 migrating cells assessed as fold change in H3K27me3-independent regulated Spsb1-mRNA expression at 3 uM measured by ChIP-seq analysis relative to control cells"}, "[26]": {"molecular_target": "Histone-lysine N-methyltransferase EZH2 (Mus musculus) (UniProt Q61188)", "test": "Inhibition of EZH2 in mouse B16-F1 migrating cells assessed as fold change in H3K27me3-buffered regulated Des-mRNA expression at 3 uM measured by ChIP-seq analysis relative to control cells"}, "[27]": {"molecular_target": "Histone-lysine N-methyltransferase EZH2 (Mus musculus) (UniProt Q61188)", "test": "Inhibition of EZH2 in mouse B16-F1 migrating cells assessed as fold change in H3K27me3-buffered regulated Sdr39u1-mRNA expression at 3 uM measured by ChIP-seq analysis relative to control cells"}, "[28]": {"molecular_target": "Histone-lysine N-methyltransferase EZH2 (Mus musculus) (UniProt Q61188)", "test": "Inhibition of EZH2 in mouse B16-F1 migrating cells assessed as fold change in H3K27me3-buffered regulated Gm15754-mRNA expression at 3 uM measured by ChIP-seq analysis relative to control cells"}, "[29]": {"molecular_target": "Histone-lysine N-methyltransferase EZH2 (Mus musculus) (UniProt Q61188)", "test": "Inhibition of EZH2 in mouse B16-F1 migrating cells assessed as fold change in H3K27me3-buffered regulated Smc6-mRNA expression at 3 uM measured by ChIP-seq analysis relative to control cells"}, "[30]": {"molecular_target": "Histone-lysine N-methyltransferase EZH2 (Mus musculus) (UniProt Q61188)", "test": "Inhibition of EZH2 in mouse B16-F1 migrating cells assessed as fold change in H3K27me3-buffered regulated Coro2b-mRNA expression at 3 uM measured by ChIP-seq analysis relative to control cells"}}, "note": "This continues a long series; more values of the same kind are listed elsewhere."}
{"smiles": "OC[C@H]1O[C@@H](n2cnc3cc(Cl)c(Cl)cc32)[C@H](O)[C@@H]1O", "values": [{"measurement": "log2FC", "setting": "[1]", "result": -0.82}, {"measurement": "log2FC", "setting": "[2]", "result": -1.26}, {"measurement": "log2FC", "setting": "[3]", "result": 0.44}, {"measurement": "log2FC", "setting": "[4]", "result": -0.59}, {"measurement": "log2FC", "setting": "[5]", "result": -0.57}, {"measurement": "log2FC", "setting": "[6]", "result": 0.7}, {"measurement": "log2FC", "setting": "[7]", "result": -0.5}, {"measurement": "log2FC", "setting": "[8]", "result": -0.83}, {"measurement": "log2FC", "setting": "[9]", "result": 0.91}, {"measurement": "log2FC", "setting": "[10]", "result": -0.78}, {"measurement": "log2FC", "setting": "[11]", "result": 0.43}, {"measurement": "log2FC", "setting": "[12]", "result": 0.38}, {"measurement": "log2FC", "setting": "[13]", "result": -0.56}, {"measurement": "log2FC", "setting": "[14]", "result": 0.44}, {"measurement": "log2FC", "setting": "[15]", "result": 0.46}]}
{"smiles": "CCCc1cc(C)[nH]c(=O)c1CNC(=O)c1cc(-c2ccnc(N3CCN(C)CC3)c2)cc2c1cnn2C(C)C", "values": [{"measurement": "log2FC", "setting": "[16]", "result": 0.84}, {"measurement": "log2FC", "setting": "[17]", "result": 0.77}, {"measurement": "log2FC", "setting": "[18]", "result": -0.12}, {"measurement": "log2FC", "setting": "[19]", "result": -0.72}, {"measurement": "log2FC", "setting": "[20]", "result": -0.8}, {"measurement": "log2FC", "setting": "[21]", "result": -0.47}, {"measurement": "log2FC", "setting": "[22]", "result": -0.54}, {"measurement": "log2FC", "setting": "[23]", "result": -0.39}, {"measurement": "log2FC", "setting": "[24]", "result": -0.4}, {"measurement": "log2FC", "setting": "[25]", "result": 0.57}, {"measurement": "log2FC", "setting": "[26]", "result": 0.47}, {"measurement": "log2FC", "setting": "[27]", "result": -0.82}, {"measurement": "log2FC", "setting": "[28]", "result": 1.53}, {"measurement": "log2FC", "setting": "[29]", "result": -0.55}, {"measurement": "log2FC", "setting": "[30]", "result": 0.48}]}
